These are yes or no findings as the source states them, for the method shown. Some entries that bind do so weakly or less than the wild type. Tags and fused reporters may be left off the sequences shown.
T1: CAP-D2 (condensin I subunit), yeast two-hybrid fusion (Arabidopsis thaliana)
T1 sequence: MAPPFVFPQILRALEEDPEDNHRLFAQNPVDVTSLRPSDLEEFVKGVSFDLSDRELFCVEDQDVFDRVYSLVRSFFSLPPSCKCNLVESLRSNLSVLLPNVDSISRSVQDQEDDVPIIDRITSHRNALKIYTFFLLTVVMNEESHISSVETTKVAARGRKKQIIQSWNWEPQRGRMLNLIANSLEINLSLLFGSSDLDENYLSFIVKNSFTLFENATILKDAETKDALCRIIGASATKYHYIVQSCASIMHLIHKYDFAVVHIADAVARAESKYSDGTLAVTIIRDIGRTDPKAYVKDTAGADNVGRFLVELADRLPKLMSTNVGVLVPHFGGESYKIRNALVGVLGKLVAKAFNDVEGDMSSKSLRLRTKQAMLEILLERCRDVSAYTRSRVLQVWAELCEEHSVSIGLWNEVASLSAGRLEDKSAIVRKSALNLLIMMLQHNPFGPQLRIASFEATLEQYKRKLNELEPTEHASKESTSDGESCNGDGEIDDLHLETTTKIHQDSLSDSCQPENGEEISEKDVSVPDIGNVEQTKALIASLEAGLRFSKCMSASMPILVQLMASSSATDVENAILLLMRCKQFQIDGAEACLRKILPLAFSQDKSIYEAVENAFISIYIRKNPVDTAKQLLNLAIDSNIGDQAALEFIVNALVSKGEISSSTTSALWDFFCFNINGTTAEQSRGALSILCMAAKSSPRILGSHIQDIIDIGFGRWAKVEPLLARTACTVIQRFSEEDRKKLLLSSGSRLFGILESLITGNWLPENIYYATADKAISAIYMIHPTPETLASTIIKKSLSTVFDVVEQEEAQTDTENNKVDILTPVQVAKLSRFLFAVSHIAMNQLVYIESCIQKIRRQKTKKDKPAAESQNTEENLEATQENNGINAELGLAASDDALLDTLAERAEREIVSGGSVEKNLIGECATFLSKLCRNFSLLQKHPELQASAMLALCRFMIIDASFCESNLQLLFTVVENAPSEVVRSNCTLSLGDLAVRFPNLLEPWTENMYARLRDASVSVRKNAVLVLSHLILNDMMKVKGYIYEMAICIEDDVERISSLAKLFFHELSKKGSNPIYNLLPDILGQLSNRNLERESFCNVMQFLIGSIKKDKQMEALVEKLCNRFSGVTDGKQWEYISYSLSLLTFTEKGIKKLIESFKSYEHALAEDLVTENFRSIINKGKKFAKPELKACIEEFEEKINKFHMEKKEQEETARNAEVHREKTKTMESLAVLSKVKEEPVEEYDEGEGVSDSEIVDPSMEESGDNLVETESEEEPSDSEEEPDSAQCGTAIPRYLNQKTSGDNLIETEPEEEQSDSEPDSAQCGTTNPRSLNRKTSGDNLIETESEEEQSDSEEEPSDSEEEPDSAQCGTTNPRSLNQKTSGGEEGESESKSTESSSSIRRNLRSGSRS

T2: CAP-D3 (condensin II subunit), yeast two-hybrid fusion (Arabidopsis thaliana) (UniProt O24610)
T2 sequence: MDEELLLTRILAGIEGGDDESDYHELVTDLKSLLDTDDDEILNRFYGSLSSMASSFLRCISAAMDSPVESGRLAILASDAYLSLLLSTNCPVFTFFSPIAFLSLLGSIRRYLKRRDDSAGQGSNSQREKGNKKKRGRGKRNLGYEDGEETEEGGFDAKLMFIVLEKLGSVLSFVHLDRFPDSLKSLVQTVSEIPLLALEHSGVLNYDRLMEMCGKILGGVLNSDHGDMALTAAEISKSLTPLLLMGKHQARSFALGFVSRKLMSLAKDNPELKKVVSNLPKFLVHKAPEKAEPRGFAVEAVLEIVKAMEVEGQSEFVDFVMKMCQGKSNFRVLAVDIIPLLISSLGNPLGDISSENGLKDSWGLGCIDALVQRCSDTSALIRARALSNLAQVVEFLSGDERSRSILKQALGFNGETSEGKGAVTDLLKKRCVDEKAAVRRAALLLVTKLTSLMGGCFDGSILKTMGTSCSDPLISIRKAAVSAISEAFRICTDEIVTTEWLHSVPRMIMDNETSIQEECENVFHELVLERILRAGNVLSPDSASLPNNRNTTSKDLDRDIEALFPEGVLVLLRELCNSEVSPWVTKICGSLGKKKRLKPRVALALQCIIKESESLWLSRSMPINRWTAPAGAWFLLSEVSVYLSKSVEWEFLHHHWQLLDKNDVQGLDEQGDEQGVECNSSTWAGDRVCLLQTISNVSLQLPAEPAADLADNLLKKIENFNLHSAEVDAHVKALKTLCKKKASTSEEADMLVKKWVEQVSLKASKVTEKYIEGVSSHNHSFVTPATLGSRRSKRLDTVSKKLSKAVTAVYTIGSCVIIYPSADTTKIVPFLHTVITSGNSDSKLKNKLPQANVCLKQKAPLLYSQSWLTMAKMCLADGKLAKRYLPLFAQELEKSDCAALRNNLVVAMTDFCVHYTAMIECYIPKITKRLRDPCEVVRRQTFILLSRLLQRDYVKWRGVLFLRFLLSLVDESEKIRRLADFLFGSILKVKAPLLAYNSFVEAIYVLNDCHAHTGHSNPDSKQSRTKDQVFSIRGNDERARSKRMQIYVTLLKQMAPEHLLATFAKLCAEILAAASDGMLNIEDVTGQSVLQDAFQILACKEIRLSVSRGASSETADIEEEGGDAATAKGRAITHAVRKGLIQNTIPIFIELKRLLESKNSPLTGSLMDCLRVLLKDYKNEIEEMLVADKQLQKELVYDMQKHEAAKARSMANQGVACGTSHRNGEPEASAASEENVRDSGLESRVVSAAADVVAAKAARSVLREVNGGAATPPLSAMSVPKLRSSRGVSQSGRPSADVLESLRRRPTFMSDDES

B1: CAP-H (Chromosome-Associated Protein H, condensin I kleisin subunit), yeast two-hybrid fusion (protein, UniProt Q564K3 1-671)
chain: MDESLTPNPKQKPASTTTRIQAPTSPFFLGSNDDRLEREQARAARAAASRRRSVIFARGSQPETESDPCFDKQQILELFQNCIKLASENKINQKNTWELNLIDHLCEIIKVEDENNTETNFQKASCTLEAGVKIYSMRVDSVHSEAYKVLGGITRAGHDDGGDHEDAAGAVENATNQKKQPEKKISPLSTLEPSFDALNVKKFDVAFAVDPLYHQTSAQFDEGGAKGLLLNNLGVYGGCQVLFDSQEIPGKLVSSANKHDKSETIDLSFVKECVEQMVLNMRKKDEIVPSLRAIINQFDEENQRPSDTFSCGQQTTESFDISHGNDASYADDDEGYENFGTSFDYEGQSGDVDENFGPNEAEPIYSNFHEEVEPASLQDMDSDDRLENVDDYLFLSLGISSKQNSWAGPDHWKYRKTKGPDVQPASEIKSSPPAKKTRKKKQAEPELDFAKALEEEMPDIFAPPKNPKTLLLPASRTPCQTKLPEDCHYQPENLIKLFLLPNVMCLGRRRRKNSGETSRQQPDDYEHGESWGNDNVYDDDDGPFDDNENDQSDAEDTNTLISQPRQVNKIDVQYDKASKQVDVQVLKETLWECLQESHQPPIQDEEHQQEPPESRSFKVLLASFPDDCQAAERTQDISPHLCFICLLHLANEHNLSLIGSQNLDDLTIHLA
B2: CAP-H2 (Chromosome-Associated Protein H2, condensin II kleisin subunit), yeast two-hybrid fusion (protein, UniProt Q9LUR0 1-683)
chain: MTSHGGGEVRGERIHTVQPERDLVANWEVDLSEKLEEYLLKICSGEITGNEEDGQIPVNFAEAALLLQGSVQVYSKKVEYLYNLVLRTLEFLSKQRDQEQSKGTSNENEASSSRQVDEEENDLFWNVDDIPVDTKNRLDSSVGGDTCPSQFVKPPANLVVLEGDCLDTSGDGGELESYLLATTHLYRDFILLDPCDAVAVNEFLGDNYGGKGRNSAHRGSSVRKSFHSSVGRSGGSARKSSVGKNQGTNVHLSPICGNGPNDQNCDQGSQPPVFEDNDHGFDMDNEYGGAMDFSDTDADEDDPWKPLNPYEPGKLKVKPFKKVKILKKIGWSITKDHMTSMFPLARPNGPISSELIEIWKMHGCASKDEQASQDIPYYEKLREMLVNGGNQPCGANGNYNDNDKDNHDEANNGDFHDFGEHDGDDAEHPFMDEDVLNMNDGGAAEFHNYDGFENGESNCQESLEDLCRSHLDALLANIAKSEKQTDLAARVSTWKQKIEQNLEEQELHPPFDIQEYGDRIINKLTVEESGNVETFTDLMKDQEKHEVARAFSALLQLVNNGDVDLEKPGNSTNEPMCYTAVKPFSVRLLKVHNRKNEKRGIHLPQKRAKSPITKGKSHESPPPKKRNTCSVSSQTRKVSLKISKINGVGVRCTPNSKKRRKGRSDDVTEVTEVASIEKSLGKL

Experiments:
[1] = biological target: T1, CAP-D2 (condensin I subunit), yeast two-hybrid fusion (Arabidopsis thaliana); assay: two-hybrid; bait and prey plasmids co-transformed into yeast strain Y2H Gold; interaction checked on SD medium minus Trp, Leu and His; 3-5 days at 28 °C
[2] = biological target: T2, CAP-D3 (condensin II subunit), yeast two-hybrid fusion (Arabidopsis thaliana); assay: as above

Row | binding [1] | binding [2] | Binder
1 | binds | – | B1
2 | – | binds | B2

Reference: paper PMC12454742
